Measurements from PubChem BioAssay AID1347075 (National Center for Advancing Translational Sciences (NCATS), 2019).
Hit rate of the full screen: of about 400,000 compounds, about 5,500 (1.4%) were called active. The shares of active, inactive and inconclusive entries below differ from those in the screen. The call rests on the fitted dose curve; in most records, active means well fitted cell-killing curve with a large enough effect; inconclusive means small, poorly fitted or top-dose-only effect, or effect the other way; inactive means flat fitted curve, though single readings scatter. A potency beside an inconclusive call is a rough fit, not a confirmed value.

Test: qHTS assay for MDR1-selective chemotherapeutics: Primary screen using the parental adenocarcinoma cell KB-3-1; further: nearly all actives have a fitted effect of over 60% in size
Details: KB-3-1 viability, CellTiter-Glo ATP luminescence, 72 h; activity change, negative = cytotoxic: at 46.1 µM (top of the series)
Outline: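 Screening of KB-3-1 cells (DMEM, 10% FBS, phenol-red free) ran from lowest to highest compound concentration; after 72 h at 37 °C viability was read luminescently and curves fitted.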
On the % scale 0 is the no-effect control and ±100 the full control effect; potency means the concentration at half of the fitted maximal effect.

Row | SMILES | Potency | activity change, negative = cytotoxic
1 | COc1ccccc1Nc1nn2c(=O)c3ccc(C(=O)NC4CCCCC4)cc3nc2s1 | inactive | –
2 | COc1ccccc1NCC(O)Cn1c2ccccc2c2ccccc21 (stereo not given) | inactive | –
3 | CC(C)n1cc(CN2CCCC(C(=O)Nc3cccc(-c4cc5ccccc5[nH]4)c3)C2)cn1 (stereo not given) | inconclusive: 29.1 µM [cytotoxic, single point] | –
4 | Cc1cccc(Oc2ccccc2NC(=O)CSCC(=O)Nc2cc(C)on2)c1 | inconclusive: 23.1 µM [cytotoxic, partial curve, poor fit] | –
5 | Nc1ccc2nc(-c3ccc(Cl)cc3)[nH]c2c1 | active: 18.4 µM | –
6 | CCc1ccc(S(=O)(=O)Nc2cc3c(cc2C)n(C)c(=O)n3C)cc1 | active: 5.17 µM | –
7 | CCOC(=O)Cn1nc(-c2ccc(Cl)cc2)cc1N | inactive | –
8 | N#C/C(=C(/O)c1ccc2c(c1)OCO2)c1nc2cc(C(F)(F)F)ccc2s1 | active: 14.6 µM | –
9 | CCN(Cc1ccccc1)C(=O)c1cccc(OC2CCN(C(=O)C3CC3)CC2)c1 | inactive | –
10 | COc1ccc(CN(C(=O)c2ccc(OCC(C)C)cc2)C2CCS(=O)(=O)C2)cc1 (stereo not given) | inactive | –
11 | S=C(Nc1ccc(Br)cc1Cl)NC1CCN(Cc2ccccc2)CC1 | inconclusive: 18.4 µM [cytotoxic, single point] | –
12 | COc1ccc(CCNC(=O)COC(=O)Cc2ccccc2F)cc1 | inconclusive: 20.6 µM [rising, partial curve, poor fit] | –
13 | O=S1(=O)C=C(Sc2nc3cc(Cl)ccc3o2)c2ccccc21 | inconclusive: 14.6 µM [cytotoxic, partial curve, poor fit] | –
14 | CCNS(=O)(=O)c1ccc(NC(=O)c2ccc(Cn3cc([N+](=O)[O-])cn3)o2)cc1 | – | inconclusive: 11.4%
15 | CCCCOCCCNC(=O)C[C@@H]1C[C@@]2(C(=O)OC)CC(C)(C)CC=C2N(Cc2cccc3ccccc23)C1=O | inconclusive: 29.1 µM [cytotoxic, single point] | –
16 | O=C(CCN1CCN(C(c2ccccc2)c2ccccc2)CC1)N/N=C/c1ccc(O)cc1 | inactive | –
17 | CCc1cccc2c(C(=O)CN3C(=O)N(C)C4(CCCCC4)C3=O)c[nH]c12 | inconclusive: 29.1 µM [cytotoxic, single point] | –
18 | COc1ccc(S(=O)(=O)N2CCN(C(=O)c3cc(-c4ccc(Br)cc4)n[nH]3)CC2)cc1OC | inconclusive: 16.4 µM [cytotoxic, single point] | –
19 | O=C(CN1C(=O)CSc2ncccc21)NCCN1CCOCC1 | inconclusive: 13 µM [rising, partial curve, poor fit] | –
20 | Cc1cccc(NS(=O)(=O)c2cccc(C(=O)N3CCN(c4ccccn4)CC3)c2)c1 | inconclusive: 18.4 µM [cytotoxic, single point] | –

3 compounds already listed, ordered by length of the SMILES, falling:
Row | SMILES | Potency | activity change, negative = cytotoxic
9 | CCN(Cc1ccccc1)C(=O)c1cccc(OC2CCN(C(=O)C3CC3)CC2)c1 | inactive | –
11 | S=C(Nc1ccc(Br)cc1Cl)NC1CCN(Cc2ccccc2)CC1 | inconclusive: 18.4 µM [cytotoxic, single point] | –
2 | COc1ccccc1NCC(O)Cn1c2ccccc2c2ccccc21 (stereo not given) | inactive | –
